Laboratory results published in PMC4202135.
These are yes or no findings as the source states them, for the method shown. In cells and extracts the contact can be indirect. Some entries that bind do so weakly or less than the wild type. Tags and fused reporters may be left off the sequences shown.

Biological target: p53 tumour suppressor protein (human (endogenous in HK-2 and RCC Shaw)) (UniProt P04637)
Experiment: co-IP; HK-2 and RCC Shaw cells co-transfected with the indicated plasmids; lysed in RIPA buffer with 10% glycerol; immunoprecipitation with the p53-specific antibody DO-1; immunoblot with anti-MDM2 (2A10) and anti-HA

B1: HA-TRIM8 (protein, UniProt Q9BZR9 1-551)
chain: MAENWKNCFEEELICPICLHVFVEPVQLPCKHNFCRGCIGEAWAKDSGLVRCPECNQAYNQKPGLEKNLKLTNIVEKFNALHVEKPPAALHCVFCRRGPPLPAQKVCLRCEAPCCQSHVQTHLQQPSTARGHLLVEADDVRAWSCPQHNAYRLYHCEAEQVAVCQYCCYYSGAHQGHSVCDVEIRRNEIRKMLMKQQDRLEEREQDIEDQLYKLESDKRLVEEKVNQLKEEVRLQYEKLHQLLDEDLRQTVEVLDKAQAKFCSENAAQALHLGERMQEAKKLLGSLQLLFDKTEDVSFMKNTKSVKILMDRTQTCTSSSLSPTKIGHLNSKLFLNEVAKKEKQLRKMLEGPFSTPVPFLQSVPLYPCGVSSSGAEKRKHSTAFPEASFLETSSGPVGGQYGAAGTASGEGQSGQPLGPCSSTQHLVALPGGAQPVHSSPVFPPSQYPNGSAAQQPMLPQYGGRKILVCSVDNCYCSSVANHGGHQPYPRSGHFPWTVPSQEYSHPLPPTPSVPQSLPSLAVRDWLDASQQPGHQDFYRVYGQPSTKHYVTS
**Q.** B1 was tested. Which binding did it give?
**A.** The binding was “binds”.
